Test results: the supplement of paper PMC11150407
Screen size: about 3,000 compounds; about 45 (2%) showed an effect of 50% or more. Some of the results follow.

These compounds were tested on MOLM1 and UCSD/AML1 (averaged) (assay: cell viability relative to DMSO control (POC); higher = less growth inhibition). Conditions: 1 µM; 72 h.
Description: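 Primary viability screen in the 3q26 EVI1-high AML cell lines MOLM1 and UCSD/AML1, compounds at 1 uM for 72 h. ATP CellTiter-Glo read-out given as percent viable over DMSO control (POC), averaged over duplicates. This mapping covers the TimTec NDL-3000 natural derivative library, whose compounds are identified by TimTec catalogue codes (ST...).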
Work on COc1cc(N(C(C)=O)C2OC(COC(C)=O)C(OC(C)=O)C(OC(C)=O)C2OC(C)=O)c(OC)c2c(C)cc(C)nc12 (configuration not stated) yielded a cell viability of 98.5%. For O=C(O)/C=C/c1ccc([N+](=O)[O-])cc1, the cell viability was 109%. Compound Cn1c(SCC(=O)Nc2ccc(Br)cc2F)nc2c(=O)[nH]cnc21 has a cell viability of 109%. COc1cc(C2=NOC(=O)/C2=C\c2cccc([N+](=O)[O-])c2)cc(OC)c1OC showed a cell viability of 98.7%. CCOc1ccc(O)c(C(=O)CC2OC(=O)c3c2ccc(OC)c3OC)c1 (configuration not stated) gave a cell viability of 93.8%. Cc1ccc(S(=O)(=O)NCC2c3ccccc3CCN2S(=O)(=O)c2ccc(C)cc2)cc1 (configuration not stated) gave a cell viability of 104%. Compound Cc1ccc(NC(=O)Cc2c(Sc3ccccc3)c3ccccc3n2C)cc1 has a cell viability of 87.6%. In the case of Cc1ccc2[nH]cc(CCNC(=O)c3cc4nc(C5CC5)cc(C(F)(F)F)n4n3)c2c1, the cell viability is reported as 97.4%. Work on COc1ccc(C(=O)Nc2ccc(OCCCOc3ccc(NC(=O)c4ccc(OC)c(OC)c4)cc3OC)c(OC)c2)cc1OC yielded a cell viability of 110%. Compound O=C(O)/C=C/c1ccc(Cl)cc1 has a cell viability of 88.1%. CCCCC(=O)Nc1ccc(-c2cc3ccccc3oc2=O)c(C)c1 was tested, and the cell viability was 106%. Compound CCOC(=O)CCc1n[nH]c(=O)[nH]c1=O has a cell viability of 88.1%. O=C(Nc1cc2nn(-c3ccccc3)nc2cc1Cl)c1ccc2c(c1)OCO2 was tested, and the cell viability was 102%. Work on COc1ccc(OC)c(-c2oc3ccccc3c(=O)c2O)c1 yielded a cell viability of 93.4%. For CC(=O)C1=C(O)C(=O)N(CCc2c(C)[nH]c3ccccc23)C1c1cccc([N+](=O)[O-])c1 (configuration not stated), the cell viability was 101%. CCCOC(=O)C1=C(C)NC2=C(C(=O)CC(C)(C)C2)C1c1ccc(OC)c(Br)c1 (configuration not stated) was tested, and the cell viability was 102%. Work on COc1ccc(CCN(C)CCN2C(=O)c3ccccc3C2=O)cc1OC yielded a cell viability of 103%. Cn1c(=O)c2c(ncn2CC(=O)Nc2nc3ccccc3s2)n(C)c1=O showed a cell viability of 110%. Compound Cc1cc([N+](=O)[O-])ccc1NC(=O)c1cc2ccccc2oc1=O has a cell viability of 102%. For COc1ccc(-c2nc(CN3CCN(Cc4cc(=O)oc5cc(C)ccc45)CC3)c(C)o2)cc1OC, the cell viability was 95%. O=C1C2OCC(O2)[C@H]2C(C(=O)C34CC5CC(CC(C5)C3)C4)N3c4ccccc4C=C[C@@H]3[C@@H]12 (some centres not stated) gave a cell viability of 94.8%. With O=C(Cc1ccc(Cl)cc1Cl)c1ccc(O)cc1O the cell viability was 96%. With O=C(Cn1c(=O)cc(C(=O)N2CCCCC2)c2ccccc21)Nc1cc(F)ccc1F the cell viability was 99.3%. Work on O=C(O)C1CCCN1S(=O)(=O)c1ccccc1 (configuration not stated) yielded a cell viability of 93.3%. Cc1ccccc1NC(=O)C(Cc1c[nH]c2ccccc12)NC(=O)OC(C)(C)C (configuration not stated) gave a cell viability of 92%. For O=C(Nc1ccc(Br)cc1)C1=Cc2ccccc2OC1, the cell viability was 97%. CCOC(=O)C1Nc2c(Cl)ccc(C(=O)O)c2C2C=CCC12 (configuration not stated) was tested, and the cell viability was 103%.
